From the supplement of paper PMC4604168 (melanoma cell lines)
This is one part of the list. Single values are uncertain, as repeats are few or missing.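 Imaging used 1,536-well plates; nuclei positive for cleaved PARP by antibody were divided by total DNA-stained nuclei to yield the apoptosis fraction. Doses for screening kept most cells viable, and cell lines differ markedly in resting and induced cleaved-PARP levels.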

Key:
Experiment in all cases: cleaved PARP positive nuclei fraction relative to DMSO control; melanoma cells; higher = more apoptosis
Conditions in all cases: library dose: low library concentration; 72 h
MZ2-MEL = test system: MZ2-MEL
MeWo = test system: MeWo
RPMI7951 = test system: RPMI7951
RVH-421 = test system: RVH-421
SkMel28 = test system: SkMel28
SkMel2 = test system: SkMel2
SkMel30 = test system: SkMel30
UACC62 = test system: UACC62

| Compound | cleaved PARP positive nuclei fraction (MZ2-MEL) [%] | cleaved PARP positive nuclei fraction (MeWo) [%] | cleaved PARP positive nuclei fraction (RPMI7951) [%] | cleaved PARP positive nuclei fraction (RVH-421) [%] | cleaved PARP positive nuclei fraction (SkMel28) [%] | cleaved PARP positive nuclei fraction (SkMel2) [%] | cleaved PARP positive nuclei fraction (SkMel30) [%] | cleaved PARP positive nuclei fraction (UACC62) [%] |
| --- | --- | --- | --- | --- | --- | --- | --- | --- |
| CN(c1ncccc1CNc1nc(Nc2ccc3c(c2)CC(=O)N3)ncc1C(F)(F)F)S(C)(=O)=O + Nc1nc(F)nc2c1ncn2[C@@H]1O[C@H](CO)[C@@H](O)[C@@H]1O [fludarabine] (first compound 0.08 µM, partner dose 0.2 µM) | 108 | 2020 | 136 | 89.8 | 235 | 1070 | 525 | 372 |
| CN(c1ncccc1CNc1nc(Nc2ccc3c(c2)CC(=O)N3)ncc1C(F)(F)F)S(C)(=O)=O + OCc1c[nH]c2ccccc12 [Indole-3-carbinol] (first compound 0.08 µM, partner dose 0.8 µM) | 49.6 | 133 | 231 | 676 | 210 | 107 | 451 | 193 |
| NC1(c2ccc(-c3nc4ccn5c(=O)[nH]nc5c4cc3-c3ccccc3)cc2)CCC1 + C[C@@H](Oc1cc(-c2cnn(C3CCNCC3)c2)cnc1N)c1c(Cl)ccc(F)c1Cl [Crizotinib] (first compound 0.4 µM, partner dose 0.2 µM) | 178 | 112 | 195 | 133 | 127 | 35.6 | 388 | 189 |
| CCN(CC)CCNC(=O)c1c(C)[nH]c(/C=C2\C(=O)Nc3ccc(F)cc32)c1C [sunitinib] + CC(C)C[C@H](NC(=O)[C@H](Cc1ccccc1)NC(=O)c1cnccn1)B(O)O [Bortezomib] (first compound 0.4 µM, partner dose 0.001 µM) | 109 | 82.7 | 131 | 160 | 71 | 67.8 | 72 | 73 |
| CCN(CC)CCNC(=O)c1c(C)[nH]c(/C=C2\C(=O)Nc3ccc(F)cc32)c1C [sunitinib] + O=C(O)c1ccc2c(c1)nc(Nc1cccc(Cl)c1)c1ccncc12 [CX4945] (first compound 0.4 µM, partner dose 0.4 µM) | 41.7 | 122 | 208 | 199 | 105 | 29 | 338 | 280 |
| CS(=O)(=O)c1ccc(C(=O)Nc2ccc(Cl)c(-c3ccccn3)c2)c(Cl)c1 [vismodegib] + O=C(O)c1ccc2c(c1)nc(Nc1cccc(Cl)c1)c1ccncc12 [CX4945] (first compound 1 µM, partner dose 0.4 µM) | 124 | 119 | 85.2 | 80.8 | 65.7 | 116 | 50.6 | 48.3 |
| NC(=O)c1ccc(N(C(N)=O)c2c(F)cccc2F)nc1-c1ccc(F)cc1F + C=C(c1ccc(C(=O)O)cc1)c1cc2c(cc1C)C(C)(C)CCC2(C)C [Bexarotene] (first compound 0.4 µM, partner dose 2 µM) | 418 | 73.9 | 220 | 107 | 110 | 121 | 63.8 | 113 |
| NC1(c2ccc(-c3nc4ccn5c(=O)[nH]nc5c4cc3-c3ccccc3)cc2)CCC1 + COc1ccc(Cl)c(Nc2nc3ccccc3nc2NS(=O)(=O)c2cccc(NC(=O)C(C)(C)N)c2)c1 [XL147] (first compound 0.4 µM, partner dose 0.8 µM) | 81.4 | 80.7 | 39.2 | 398 | 164 | 43.9 | 90.7 | 142 |
| Cn1sc(=O)n(Cc2ccccc2)c1=O + CCCCCCCCc1ccc(CCC(N)(CO)CO)cc1 [fingolimod] (first compound 0.4 µM, partner dose 2 µM) | 99.3 | 39.3 | 198 | 44.8 | 154 | 109 | 20.3 | 59.5 |
| Cn1cnc2c(F)c(Nc3ccc(Br)cc3Cl)c(C(=O)NOCCO)cc21 [selumetinib] + CN1CCN(c2ccc3nc(-c4c(N)c5c(F)cccc5[nH]c4=O)[nH]c3c2)CC1 [Dovitinib] (first compound 0.015 µM, partner dose 0.1 µM) | 179 | 330 | 59 | 184 | 74.7 | 183 | 110 | 49.6 |
| NC(=O)c1ccc(N(C(N)=O)c2c(F)cccc2F)nc1-c1ccc(F)cc1F + C[C@]1(c2nc3c(C(N)=O)cccc3[nH]2)CCCN1 [Veliparib] (first compound 0.4 µM, partner dose 1.4 µM) | 87.4 | 174 | 88.4 | 125 | 53.2 | 110 | 43.7 | 139 |
| Cn1sc(=O)n(Cc2ccccc2)c1=O + COCC[n+]1c2c(n(Cc3cnccn3)c1C)C(=O)c1ccccc1C2=O [YM155] (first compound 0.4 µM, partner dose 0.0004 µM) | 108 | 96.7 | 117 | 65.8 | 106 | 75.1 | 47.7 | 122 |
| Cn1cnc2c(F)c(Nc3ccc(Br)cc3Cl)c(C(=O)NOCCO)cc21 [selumetinib] + Cc1nc(Nc2ncc(C(=O)Nc3c(C)cccc3Cl)s2)cc(N2CCN(CCO)CC2)n1 [dasatanib] (first compound 0.015 µM, partner dose 0.004 µM) | 260 | 139 | 305 | 193 | 78.7 | 165 | 73.4 | 247 |
| CCN(CC)CCNC(=O)c1c(C)[nH]c(/C=C2\C(=O)Nc3ccc(F)cc32)c1C [sunitinib] + Cn1nnc2c(C(N)=O)ncn2c1=O [temozolomide] (first compound 0.4 µM, partner dose 2 µM) | 104 | 139 | 318 | 110 | 75.4 | 80.2 | 102 | 305 |
| C[C@@H](N)c1ccc(C(=O)Nc2ccnc3[nH]ccc23)cc1 + C=CCNC1=C2C[C@@H](C)C[C@H](OC)[C@H](O)[C@@H](C)/C=C(\C)[C@H](OC(N)=O)[C@@H](OC)/C=C\C=C(/C)C(=O)NC(=CC1=O)C2=O [Tanespimycin] (first compound 0.4 µM, partner dose 0.002 µM) | 200 | 435 | 134 | 156 | 30.9 | 101 | 86.6 | 306 |
| Cn1sc(=O)n(Cc2ccccc2)c1=O + Cc1nc(Nc2ncc(C(=O)Nc3c(C)cccc3Cl)s2)cc(N2CCN(CCO)CC2)n1 [dasatanib] (first compound 0.4 µM, partner dose 0.004 µM) | 23.2 | 93.6 | 84.4 | 177 | 90.2 | 36.5 | 128 | 336 |
| C[C@]1(O)C[C@@H](c2nc(-c3ccc4ccc(-c5ccccc5)nc4c3)c3c(N)nccn32)C1 + NC1(c2ccc(-c3nc4ccn5c(=O)[nH]nc5c4cc3-c3ccccc3)cc2)CCC1 [MK2206] (first compound 0.4 µM, partner dose 0.4 µM) | 89.7 | 119 | 40.1 | 35.2 | 98.8 | 68.3 | 33.7 | 127 |
| Cn1cnc2c(F)c(Nc3ccc(Br)cc3Cl)c(C(=O)NOCCO)cc21 [selumetinib] + Nc1ncn([C@H]2C[C@H](O)[C@@H](CO)O2)c(=O)n1 [decitabine] (first compound 0.015 µM, partner dose 0.1 µM) | 497 | 184 | 288 | 91.7 | 91.1 | 193 | 61 | 243 |
| CC1(C)CCC(c2ccc(Cl)cc2)=C(CN2CCN(c3ccc(C(=O)NS(=O)(=O)c4ccc(N[C@H](CCN5CCOCC5)CSc5ccccc5)c(S(=O)(=O)C(F)(F)F)c4)cc3)CC2)C1 + CNC(=O)c1cc(Oc2ccc(NC(=O)Nc3ccc(Cl)c(C(F)(F)F)c3)cc2)ccn1 [sorafenib] (first compound 0.4 µM, partner dose 0.4 µM) | 399 | 412 | 45.3 | 65.4 | 96.1 | 172 | 91.3 | 95.8 |
| C[C@]1(O)C[C@@H](c2nc(-c3ccc4ccc(-c5ccccc5)nc4c3)c3c(N)nccn32)C1 + Cc1nc(Nc2ncc(C(=O)Nc3c(C)cccc3Cl)s2)cc(N2CCN(CCO)CC2)n1 [dasatanib] (first compound 0.4 µM, partner dose 0.004 µM) | 108 | 181 | 172 | 32.5 | 197 | 63.6 | 86.5 | 251 |
| NC1(c2ccc(-c3nc4ccn5c(=O)[nH]nc5c4cc3-c3ccccc3)cc2)CCC1 + O=C(O)[C@@H]1[O][Sb](=[O])([O][Sb]2(=[O])[O][C@H]([C@H](O)CO)[C@H](O)[C@H](C(=O)O)[O]2)[O][C@H]([C@H](O)CO)[C@@H]1O [stibogluconate] (first compound 0.4 µM, partner dose 2 µM) | 92.6 | 127 | 83.6 | 184 | 90 | 143 | 84.3 | 87 |
| Cn1sc(=O)n(Cc2ccccc2)c1=O + CCN(CC)CCNC(=O)c1c(C)[nH]c(/C=C2\C(=O)Nc3ccc(F)cc32)c1C [sunitinib] (first compound 0.4 µM, partner dose 0.4 µM) | 58.9 | 50.4 | 25 | 109 | 15.6 | 57.4 | 89.1 | 73 |
| C[C@]1(O)C[C@@H](c2nc(-c3ccc4ccc(-c5ccccc5)nc4c3)c3c(N)nccn32)C1 + Cn1nnc2c(C(N)=O)ncn2c1=O [temozolomide] (first compound 0.4 µM, partner dose 2 µM) | 42.1 | 165 | 79 | 76.9 | 95.7 | 41.7 | 63.5 | 173 |

2 entries picked at random from the list so far:

| Compound | cleaved PARP positive nuclei fraction (MZ2-MEL) [%] | cleaved PARP positive nuclei fraction (MeWo) [%] | cleaved PARP positive nuclei fraction (RPMI7951) [%] | cleaved PARP positive nuclei fraction (RVH-421) [%] | cleaved PARP positive nuclei fraction (SkMel28) [%] | cleaved PARP positive nuclei fraction (SkMel2) [%] | cleaved PARP positive nuclei fraction (SkMel30) [%] | cleaved PARP positive nuclei fraction (UACC62) [%] |
| --- | --- | --- | --- | --- | --- | --- | --- | --- |
| C[C@@H](N)c1ccc(C(=O)Nc2ccnc3[nH]ccc23)cc1 + C=CCNC1=C2C[C@@H](C)C[C@H](OC)[C@H](O)[C@@H](C)/C=C(\C)[C@H](OC(N)=O)[C@@H](OC)/C=C\C=C(/C)C(=O)NC(=CC1=O)C2=O [Tanespimycin] (first compound 0.4 µM, partner dose 0.002 µM) | 200 | 435 | 134 | 156 | 30.9 | 101 | 86.6 | 306 |
| CN(c1ncccc1CNc1nc(Nc2ccc3c(c2)CC(=O)N3)ncc1C(F)(F)F)S(C)(=O)=O + OCc1c[nH]c2ccccc12 [Indole-3-carbinol] (first compound 0.08 µM, partner dose 0.8 µM) | 49.6 | 133 | 231 | 676 | 210 | 107 | 451 | 193 |
